# No constants are given. Whether binding was seen depends on the method and setting. Binding can be weak; no strength is given.
# Protein sequences, listed by entry. Tags and fused reporters are not part of them. Lines headed by an entry give the natural chain unless they say otherwise; changes in a name come on top.
# UniProt Q8W2F1: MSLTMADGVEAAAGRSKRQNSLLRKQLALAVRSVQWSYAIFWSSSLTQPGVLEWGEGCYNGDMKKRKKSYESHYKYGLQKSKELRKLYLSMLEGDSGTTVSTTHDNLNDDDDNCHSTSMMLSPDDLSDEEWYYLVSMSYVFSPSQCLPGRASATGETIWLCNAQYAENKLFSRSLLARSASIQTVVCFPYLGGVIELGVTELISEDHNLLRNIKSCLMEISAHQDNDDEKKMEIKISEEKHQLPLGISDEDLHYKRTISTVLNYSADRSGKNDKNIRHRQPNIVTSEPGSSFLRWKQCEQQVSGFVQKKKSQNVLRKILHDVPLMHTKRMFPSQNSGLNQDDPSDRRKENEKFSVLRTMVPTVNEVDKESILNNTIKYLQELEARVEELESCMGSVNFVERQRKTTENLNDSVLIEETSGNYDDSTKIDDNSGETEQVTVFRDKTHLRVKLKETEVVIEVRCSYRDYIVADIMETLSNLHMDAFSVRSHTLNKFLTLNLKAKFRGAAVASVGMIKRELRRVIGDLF
# Target: ATMYC1 Ler with A189P (Arabidopsis thaliana) (UniProt Q8W2F1)
# Assay: two-hybrid; ATMYC1 in the DNA binding vector pGBT9 RFB, TTG1 or GL1 in activation domain vectors; yeast strain Y190; growth on histidine dropout media and β-galactosidase activity (X-gal, colonies lifted on nitrocellulose)
row,Binder,binding
1,"TTG1 (protein, UniProt Q9XGN1 1-341) MDNSAPDSLSRSETAVTYDSPYPLYAMAFSSLRSSSGHRIAVGSFLEDYNNRIDILSFDSDSMTVKPLPNLSFEHPYPPTKLMFSPPSLRRPSSGDLLASSGDFLRLWEINEDSSTVEPISVLNNSKTSEFCAPLTSFDWNDVEPKRLGTCSIDTTCTIWDIEKSVVETQLIAHDKEVHDIAWGEARVFASVSADGSVRIFDLRDKEHSTIIYESPQPDTPLLRLAWNKQDLRYMATILMDSNKVVILDIRSPTMPVAELERHQASVNAIAWAPQSCKHICSGGDDTQALIWELPTVAGPNGIDPMSVYSAGSEINQLQWSSSQPDWIGIAFANKMQLLRV",binds
2,"GL1 (protein, UniProt P27900 1-228) MRIRRRDEKENQEYKKGLWTVEEDNILMDYVLNHGTGQWNRIVRKTGLKRCGKSCRLRWMNYLSPNVNKGNFTEQEEDLIIRLHKLLGNRWSLIAKRVPGRTDNQVKNYWNTHLSKKLVGDYSSAVKTTGEDDDSPPSLFITAATPSSCHHQQENIYENIAKSFNGVVSASYEDKPKQELAQKDVLMATTNDPSHYYGNNALWVHDDDFELSSLVMMNFASGDVEYCL",binds
